The record followed here is US20080119424A1 (published 2008).

Protein sequences, listed by entry. Tags and fused reporters are not part of them. Lines headed by an entry give the natural chain unless they say otherwise; changes in a name come on top.
UniProt P78395: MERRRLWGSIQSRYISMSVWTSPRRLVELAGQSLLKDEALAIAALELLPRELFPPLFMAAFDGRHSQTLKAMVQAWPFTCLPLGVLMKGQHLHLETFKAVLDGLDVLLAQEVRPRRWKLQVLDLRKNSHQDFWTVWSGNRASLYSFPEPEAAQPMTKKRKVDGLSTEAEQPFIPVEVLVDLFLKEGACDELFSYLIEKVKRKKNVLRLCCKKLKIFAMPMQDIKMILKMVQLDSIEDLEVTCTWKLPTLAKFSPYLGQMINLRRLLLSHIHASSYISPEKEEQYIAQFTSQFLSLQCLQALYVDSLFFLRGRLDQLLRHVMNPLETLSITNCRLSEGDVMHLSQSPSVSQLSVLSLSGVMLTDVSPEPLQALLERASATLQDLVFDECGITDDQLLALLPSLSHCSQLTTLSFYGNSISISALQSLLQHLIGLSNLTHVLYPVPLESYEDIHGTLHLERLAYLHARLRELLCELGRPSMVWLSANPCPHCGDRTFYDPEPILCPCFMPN

The assay deals with T1, endogenous RARα (Retinoic Acid Receptor alpha) of mouse cells (mouse (endogenous in mouse embryonic fibroblasts)) (UniProt P11416).
T1 sequence (looked up): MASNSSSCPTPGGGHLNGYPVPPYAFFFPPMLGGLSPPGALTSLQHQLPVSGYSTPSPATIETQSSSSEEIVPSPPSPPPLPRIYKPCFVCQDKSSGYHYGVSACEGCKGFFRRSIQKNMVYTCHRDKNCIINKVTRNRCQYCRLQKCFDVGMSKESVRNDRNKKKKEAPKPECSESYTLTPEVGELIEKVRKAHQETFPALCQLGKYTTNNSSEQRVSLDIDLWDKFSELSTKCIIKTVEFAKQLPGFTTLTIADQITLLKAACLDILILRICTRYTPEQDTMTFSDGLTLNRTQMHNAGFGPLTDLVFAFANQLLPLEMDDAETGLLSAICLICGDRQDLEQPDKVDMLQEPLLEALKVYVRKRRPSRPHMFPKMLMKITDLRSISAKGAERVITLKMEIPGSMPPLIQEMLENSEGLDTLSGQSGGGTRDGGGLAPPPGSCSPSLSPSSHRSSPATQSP
Briefly: co-immunoprecipitation on IgG beads from Ras^V12 MEF lysates, immunoblot for RARα, before and after 1 µM RA.

Results are given in words; binding and its absence hold for the method and conditions named. Binding seen in cells or lysates may run through a third protein. Some results given as binding are weak or reduced against the parent protein; the word gives no strength.

For the substance “TAP-tagged PRAME (from UniProt P78395 1-509)”, the binding entry was “binds”.
